In patent publication US20200261445A1, “USE OF SENOLYTIC AGENTS TO ELIMINATE PERSISTENT HIV RESERVOIRS” (The George Washington University, priority 2017, published 2020):
At least one compound was matched to its structure with a doubt left.

How the values were obtained:
Assay type in all cases: cell-based
[1] = system: HIV latency reservoir (resting CD4+ T cells); test: HIVE assay with quantitative viral outgrowth (IUPM), three HIV latency reservoir models; details: ABT-199 100 nM only; p=0.03; FIG. 9D
Description: (§1) For each condition tested, up to 200×10^6 PBMC were thawed from leukapheresis material. An aliquot of PBMCs was stained with antibodies to CD3, CD4, CD8, HLA-DR, and CD69 for flow cytometry analysis (pre-selection sample). Resting CD4^+ T-cells were enriched from these PBMC by negative selection (Easysep CD4^+ T-cell enrichment kit, Stemcell Technologies) following the manufacturer's instructions. Cells were washed and re-suspended in 1 ml of 2% FBS PBS and an aliquot was stained as above (post-selection sample). To proceed, >98% pure resting CD4^+ T-cells in the negative fraction we required. […]
(§2) Co-cultures were harvested at 4 days post-initiation of co-culture. […] CD4^+ T-cells were then fixed in 2% paraformaldehyde, and analyzed by flow cytometry on an LSR-II instrument and with FlowJo software.
(§3) DNA quantification: 2×10^6 cells/condition were centrifuged and DNA, for ddPCR, was extracted from cell pellets using the Gentra Puregene kit (Qiagen), following the manufacturer's instructions. This DNA was then analyzed by digital droplet polymerase chain reaction (see below). Infectious virus quantification: The remaining cells, to be used for viral outgrowth assays, were incubated overnight in R10-50+4 nM IL-15SA (ALT-803) at a concentration of 2×10^6 cells/ml. These cells are then plated out in quantitative viral outgrowth assays (see below). […]

[2] = system: HIV latency reservoir (resting CD4+ T cells); test: HIVE assay with ddPCR of total HIV DNA, three HIV latency reservoir models; details: ABT-199 100 nM only; p=0.03; FIG. 9C
Description: as §1, §2, §3

[3] = system: HIV latency reservoir models spiked into natural reservoirs; test: 'Spiked' HIVE assay with QVOA (latency model cells spiked into natural reservoirs); details: Bryostatin 10 nM, ABT-199 100 nM, HIV-specific CTLs, FIG. 10
Description: For experiments using CTL clones as effectors, clones were used at […] after their most recent re-stimulation. Specificity, functionality, and responsiveness of CTLs were confirmed by CD107a degranulation assays, as well as by HIV elimination assays the day before assay setup. Clones were washed extensively prior to addition to co-culture.
NK cells and CTL clones were added at 1:10 effector:target ratios, with or without the indicated latency reversing agents. […]
as §2, §3

CC1(C)CCC(CN2CCN(c3ccc(C(=O)NS(=O)(=O)c4ccc(NCC5CCOCC5)c([N+](=O)[O-])c4)c(Oc4cnc5[nH]ccc5c4)c3)CC2)=C(c2ccc(Cl)cc2)C1 [ABT-199, Venetoclax]
infectious units per million cells (IUPM) [1]: significant reduction
total HIV DNA copies [2]: significant reduction
IUPM compared to the NoTx condition [3]: did not lead to significant decreases
